Consider one substance from publication PMC11786039.

By UniProt entry, the sequences of proteins in these tests, tags left out. Residues count along the entry.
UniProt P30101, residues 25-505: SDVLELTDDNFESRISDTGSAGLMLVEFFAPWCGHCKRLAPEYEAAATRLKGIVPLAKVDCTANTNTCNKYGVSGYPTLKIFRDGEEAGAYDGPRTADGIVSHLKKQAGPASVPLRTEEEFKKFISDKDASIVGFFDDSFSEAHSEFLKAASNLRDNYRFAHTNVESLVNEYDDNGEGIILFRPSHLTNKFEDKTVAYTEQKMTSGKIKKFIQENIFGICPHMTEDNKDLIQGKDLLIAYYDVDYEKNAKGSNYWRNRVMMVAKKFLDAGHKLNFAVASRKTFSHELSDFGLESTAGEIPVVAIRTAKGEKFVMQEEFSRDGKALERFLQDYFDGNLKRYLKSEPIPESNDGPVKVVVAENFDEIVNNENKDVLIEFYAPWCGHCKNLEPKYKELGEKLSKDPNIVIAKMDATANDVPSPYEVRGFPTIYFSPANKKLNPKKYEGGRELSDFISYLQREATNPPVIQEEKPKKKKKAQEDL

The assay addresses T1, aurora kinase C (AURKC) (human (endogenous in SW839 and SKRC-39)) (UniProt Q9UQB9).
T1 sequence: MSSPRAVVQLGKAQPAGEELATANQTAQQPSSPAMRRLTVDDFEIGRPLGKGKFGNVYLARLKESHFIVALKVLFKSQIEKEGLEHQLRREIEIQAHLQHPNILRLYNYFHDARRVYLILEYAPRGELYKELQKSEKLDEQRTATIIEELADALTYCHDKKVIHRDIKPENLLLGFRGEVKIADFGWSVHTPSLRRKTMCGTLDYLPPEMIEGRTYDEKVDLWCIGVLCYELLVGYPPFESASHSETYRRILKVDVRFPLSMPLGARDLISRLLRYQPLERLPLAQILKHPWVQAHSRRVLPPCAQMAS
Kind of assay: co-IP; AURKC antibody added to 200 uL lysate of SW839 or SKRC-39 cells, overnight at 4°C, magnetic beads, 5 washes with cell lysate; ERp57 detected by western blot. For orientation: Immunoblotting shows a protein as a band on a membrane.

These are yes or no findings as the source states them, for the method shown. In cells and extracts the contact can be indirect. Some entries that bind do so weakly or less than the wild type.

For “Endoplasmic reticulum resident protein 57 (ERp57) (from UniProt P30101 25-505)”, the binding entry is reported as “binds”.
